From doi:10.1101/2022.04.06.487297 (bioRxiv, 2022)
Results are given in words; binding and its absence hold for the method and conditions named. Binding seen in cells or lysates may run through a third protein. Some results given as binding are weak or reduced against the parent protein; the word gives no strength.

Sequences of proteins named here, by UniProt entry; tags and fusion partners are left off.
UniProt Q60598: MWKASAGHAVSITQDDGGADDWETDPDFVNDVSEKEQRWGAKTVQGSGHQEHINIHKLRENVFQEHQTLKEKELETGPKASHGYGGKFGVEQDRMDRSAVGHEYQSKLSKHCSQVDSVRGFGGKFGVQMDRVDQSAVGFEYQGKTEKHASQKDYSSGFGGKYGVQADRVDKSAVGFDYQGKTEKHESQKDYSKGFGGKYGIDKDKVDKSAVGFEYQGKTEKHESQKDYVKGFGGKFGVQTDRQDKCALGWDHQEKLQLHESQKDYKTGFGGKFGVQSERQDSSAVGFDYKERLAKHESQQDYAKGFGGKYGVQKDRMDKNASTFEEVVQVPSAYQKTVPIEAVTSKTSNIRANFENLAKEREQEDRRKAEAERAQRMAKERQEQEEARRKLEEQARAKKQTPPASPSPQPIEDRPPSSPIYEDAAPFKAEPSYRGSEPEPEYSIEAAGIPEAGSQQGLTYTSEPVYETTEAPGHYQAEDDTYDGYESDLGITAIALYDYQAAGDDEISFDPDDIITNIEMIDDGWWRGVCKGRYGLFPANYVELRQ
UniProt Q14289: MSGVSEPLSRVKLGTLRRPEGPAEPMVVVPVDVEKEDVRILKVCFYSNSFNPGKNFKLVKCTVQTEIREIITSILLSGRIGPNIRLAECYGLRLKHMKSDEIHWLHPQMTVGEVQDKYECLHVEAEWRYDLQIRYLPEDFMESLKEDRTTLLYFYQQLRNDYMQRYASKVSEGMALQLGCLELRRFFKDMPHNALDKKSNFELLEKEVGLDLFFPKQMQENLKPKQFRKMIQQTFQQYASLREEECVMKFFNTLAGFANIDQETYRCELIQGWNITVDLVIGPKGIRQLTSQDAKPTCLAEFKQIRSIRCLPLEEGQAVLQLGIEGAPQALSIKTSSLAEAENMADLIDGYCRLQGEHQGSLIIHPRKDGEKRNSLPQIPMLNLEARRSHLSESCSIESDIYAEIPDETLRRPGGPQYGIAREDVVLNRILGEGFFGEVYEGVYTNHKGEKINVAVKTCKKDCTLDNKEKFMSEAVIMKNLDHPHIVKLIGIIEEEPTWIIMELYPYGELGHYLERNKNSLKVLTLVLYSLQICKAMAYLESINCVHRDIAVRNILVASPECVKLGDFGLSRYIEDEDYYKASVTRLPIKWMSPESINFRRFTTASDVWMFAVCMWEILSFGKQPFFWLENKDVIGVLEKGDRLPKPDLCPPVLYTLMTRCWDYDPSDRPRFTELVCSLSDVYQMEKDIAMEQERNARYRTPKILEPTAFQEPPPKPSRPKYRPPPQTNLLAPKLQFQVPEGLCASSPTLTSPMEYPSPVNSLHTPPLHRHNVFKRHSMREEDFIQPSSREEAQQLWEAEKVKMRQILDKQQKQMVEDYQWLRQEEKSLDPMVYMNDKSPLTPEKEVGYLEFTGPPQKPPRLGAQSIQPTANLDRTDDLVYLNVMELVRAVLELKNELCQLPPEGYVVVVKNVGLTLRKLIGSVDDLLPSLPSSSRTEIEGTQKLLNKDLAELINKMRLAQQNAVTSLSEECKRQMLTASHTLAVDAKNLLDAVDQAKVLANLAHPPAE

Biological target: cortactin-TagRFP (UniProt Q60598)
Assay: FRET or BRET

“Pyk2 (proline-rich tyrosine kinase 2), pY402 form (from UniProt Q14289 1-1009)” was tested. Which binding did it give?
Its binding is “binds”.
